For this data set, the system named is mSWI/SNF complexes. Briefly: mSWI/SNF complex purification with HA-tagged baits and mass spectrometry (peptide counts). On the set-up: species or system human.
The mark [1] stands for this setting: 293_HA-BRD7 bait purification, mass spectrometry, total peptide count per identified protein.
[2] abbreviates: 293_HA-BRD7 bait purification, mass spectrometry, unique peptide count per identified protein.

B1: SRRT (protein, UniProt Q9BXP5 2-876, looked up)
Serrate RNA effector molecule …: GDSDDEYDRRRRDKFRRERSDYDRSRERDERRRGDDWNDREWDRGRERRSRGEYRDYDRNRRERFSPPRHELSPPQKRMRRDWDEHSSDPYHSGYEMPYAGGGGGPTYGPPQPWGHPDVHIMQHHVLPIQARLGSIAEIDLGVPPPVMKTFKEFLLSLDDSVDETEAVKRYNDYKLDFRRQQMQDFFLAHKDEEWFRSKYHPDEVGKRRQEARGALQNRLRVFLSLMETGWFDNLLLDIDKADAIVKMLDAAVIKMEGGTENDLRILEQEEEEEQAGKPGEPSKKEEGRAGAGLGDGERKTNDKDEKKEDGKQAENDSSNDDKTKKSEGDGDKEEKKEDSEKEAKKSSKKRNRKHSGDDSFDEGSVSESESESESGQAEEEKEEAEEALKEKEKPKEEEWEKPKDAAGLECKPRPLHKTCSLFMRNIAPNISRAEIISLCKRYPGFMRVALSEPQPERRFFRRGWVTFDRSVNIKEICWNLQNIRLRECELSPGVNRDLTRRVRNINGITQHKQIVRNDIKLAAKLIHTLDDRTQLWASEPGTPPLPTSLPSQNPILKNITDYLIEEVSAEEEELLGSSGGAPPEEPPKEGNPAEINVERDEKLIKVLDKLLLYLRIVHSLDYYNTCEYPNEDEMPNRCGIIHVRGPMPPNRISHGEVLEWQKTFEEKLTPLLSVRESLSEEEAQKMGRKDPEQEVEKFVTSNTQELGKDKWLCPLSGKKFKGPEFVRKHIFNKHAEKIEEVKKEVAFFNNFLTDAKRPALPEIKPAQPPGPAQILPPGLTPGLPYPHQTPQGLMPYGQPRPPILGYGAGAVRPAVPTGGPPYPHAPYGAGRGNYDAFRGQGGYPGKPRNRMVRGDPRAIVEYRDLDAPDDVDFF
For the molecule B1, the Total under setting [1] amounted to 1. Under setting [2], the Unique turned out to be 1.

B2: SLC25A11 (protein, UniProt Q02978 2-314, looked up)
Mitochondrial …: AATASAGAGGIDGKPRTSPKSVKFLFGGLAGMGATVFVQPLDLVKNRMQLSGEGAKTREYKTSFHALTSILKAEGLRGIYTGLSAGLLRQATYTTTRLGIYTVLFERLTGADGTPPGFLLKAVIGMTAGATGAFVGTPAEVALIRMTADGRLPADQRRGYKNVFNALIRITREEGVLTLWRGCIPTMARAVVVNAAQLASYSQSKQFLLDSGYFSDNILCHFCASMISGLVTTAASMPVDIAKTRIQNMRMIDGKPEYKNGLDVLFKVVRYEGFFSLWKGFTPYYARLGPHTVLTFIFLEQMNKAYKRLFLSG
On to B2, for which the Total (293_HA-BRD7: HA-BRD7 bait purification, total peptide count per co-purified protein) was 12 and the Total (293_HA-DPF2 purification, total peptides) is given as 1. This molecule came in with a Unique (293_HA-BRD7: HA-BRD7 bait purification, unique peptide count per co-purified protein) of 12 and a Unique (293_HA-DPF2 purification, unique peptides) of 1.

B3: VAT1 (protein, UniProt Q99536 2-393, looked up)
Synaptic vesicle membrane …: SDEREVAEAATGEDASSPPPKTEAASDPQHPAASEGAAAAAASPPLLRCLVLTGFGGYDKVKLQSRPAAPPAPGPGQLTLRLRACGLNFADLMARQGLYDRLPPLPVTPGMEGAGVVIAVGEGVSDRKAGDRVMVLNRSGMWQEEVTVPSVQTFLIPEAMTFEEAAALLVNYITAYMVLFDFGNLQPGHSVLVHMAAGGVGMAAVQLCRTVENVTVFGTASASKHEALKENGVTHPIDYHTTDYVDEIKKISPKGVDIVMDPLGGSDTAKGYNLLKPMGKVVTYGMANLLTGPKRNLMALARTWWNQFSVTALQLLQANRAVCGFHLGYLDGEVELVSGVVARLLALYNQGHIKPHIDSVWPFEKVADAMKQMQEKKNVGKVLLVPGPEKEN
B3: under setting [1], the Total is 1. The same molecule displayed a Unique under setting [2] of 1.

B4: DHCR7 (protein, UniProt Q9UBM7 1-475, looked up)
7-dehydrocholesterol reductase: MAAKSQPNIPKAKSLDGVTNDRTASQGQWGRAWEVDWFSLASVIFLLLFAPFIVYYFIMACDQYSCALTGPVVDIVTGHARLSDIWAKTPPITRKAAQLYTLWVTFQVLLYTSLPDFCHKFLPGYVGGIQEGAVTPAGVVNKYQINGLQAWLLTHLLWFANAHLLSWFSPTIIFDNWIPLLWCANILGYAVSTFAMVKGYFFPTSARDCKFTGNFFYNYMMGIEFNPRIGKWFDFKLFFNGRPGIVAWTLINLSFAAKQRELHSHVTNAMVLVNVLQAIYVIDFFWNETWYLKTIDICHDHFGWYLGWGDCVWLPYLYTLQGLYLVYHPVQLSTPHAVGVLLLGLVGYYIFRVANHQKDLFRRTDGRCLIWGRKPKVIECSYTSADGQRHHSKLLVSGFWGVARHFNYVGDLMGSLAYCLACGGGHLLPYFYIIYMAILLTHRCLRDEHRCASKYGRDWERYTAAVPYRLLPGIF
Take B4: under setting [1], the Total turned out to be 1. Further, the Unique under setting [2] is on record as 1.

B5: SELH (protein, UniProt Q8IZQ5 1-122, looked up)
Selenoprotein H: MAPRGRKRKAEAAVVAVAEKREKLANGGEGMEEATVVIEHCTSURVYGRNAAALSQALRLEAPELPVKVNPTKPRRGSFEVTLLRPDGSSAELWTGIKKGPPRKLKFPEPQEVVEELKKYLS
Molecule B5 had a Total under setting [1] of 1. Moreover, the Unique under setting [2] stood at 1.

B6: HYOU1 (protein, UniProt Q9Y4L1 33-999, looked up)
Hypoxia up-regulated protein 1: LAVMSVDLGSESMKVAIVKPGVPMEIVLNKESRRKTPVIVTLKENERFFGDSAASMAIKNPKATLRYFQHLLGKQADNPHVALYQARFPEHELTFDPQRQTVHFQISSQLQFSPEEVLGMVLNYSRSLAEDFAEQPIKDAVITVPVFFNQAERRAVLQAARMAGLKVLQLINDNTATALSYGVFRRKDINTTAQNIMFYDMGSGSTVCTIVTYQMVKTKEAGMQPQLQIRGVGFDRTLGGLEMELRLRERLAGLFNEQRKGQRAKDVRENPRAMAKLLREANRLKTVLSANADHMAQIEGLMDDVDFKAKVTRVEFEELCADLFERVPGPVQQALQSAEMSLDEIEQVILVGGATRVPRVQEVLLKAVGKEELGKNINADEAAAMGAVYQAAALSKAFKVKPFVVRDAVVYPILVEFTREVEEEPGIHSLKHNKRVLFSRMGPYPQRKVITFNRYSHDFNFHINYGDLGFLGPEDLRVFGSQNLTTVKLKGVGDSFKKYPDYESKGIKAHFNLDESGVLSLDRVESVFETLVEDSAEEESTLTKLGNTISSLFGGGTTPDAKENGTDTVQEEEESPAEGSKDEPGEQVELKEEAEAPVEDGSQPPPPEPKGDATPEGEKATEKENGDKSEAQKPSEKAEAGPEGVAPAPEGEKKQKPARKRRMVEEIGVELVVLDLPDLPEDKLAQSVQKLQDLTLRDLEKQEREKAANSLEAFIFETQDKLYQPEYQEVSTEEQREEISGKLSAASTWLEDEGVGATTVMLKEKLAELRKLCQGLFFRVEERKKWPERLSALDNLLNHSSMFLKGARLIPEMDQIFTEVEMTTLEKVINETWAWKNATLAEQAKLPATEKPVLLSKDIEAKMMALDREVQYLLNKAKFTKPRPRPKDKNGTRAEPPLNASASDQGEKVIPPAGQTEDAEPISEPEKVETGSEPGDTEPLELGGPGAEPEQKEQSTGQKRPLKNDEL
B6: the Total under setting [1] is on record as 1. The molecule also gave a Unique under setting [2] of 1.

B7: EXOSC10 (protein, UniProt Q01780 1-885, looked up)
Exosome complex component 10: MAPPSTREPRVLSATSATKSDGEMVLPGFPDADSFVKFALGSVVAVTKASGGLPQFGDEYDFYRSFPGFQAFCETQGDRLLQCMSRVMQYHGCRSNIKDRSKVTELEDKFDLLVDANDVILERVGILLDEASGVNKNQQPVLPAGLQVPKTVVSSWNRKAAEYGKKAKSETFRLLHAKNIIRPQLKFREKIDNSNTPFLPKIFIKPNAQKPLPQALSKERRERPQDRPEDLDVPPALADFIHQQRTQQVEQDMFAHPYQYELNHFTPADAVLQKPQPQLYRPIEETPCHFISSLDELVELNEKLLNCQEFAVDLEHHSYRSFLGLTCLMQISTRTEDFIIDTLELRSDMYILNESLTDPAIVKVFHGADSDIEWLQKDFGLYVVNMFDTHQAARLLNLGRHSLDHLLKLYCNVDSNKQYQLADWRIRPLPEEMLSYARDDTHYLLYIYDKMRLEMWERGNGQPVQLQVVWQRSRDICLKKFIKPIFTDESYLELYRKQKKHLNTQQLTAFQLLFAWRDKTARREDESYGYVLPNHMMLKIAEELPKEPQGIIACCNPVPPLVRQQINEMHLLIQQAREMPLLKSEVAAGVKKSGPLPSAERLENVLFGPHDCSHAPPDGYPIIPTSGSVPVQKQASLFPDEKEDNLLGTTCLIATAVITLFNEPSAEDSKKGPLTVAQKKAQNIMESFENPFRMFLPSLGHRAPVSQAAKFDPSTKIYEISNRWKLAQVQVQKDSKEAVKKKAAEQTAAREQAKEACKAAAEQAISVRQQVVLENAAKKRERATSDPRTTEQKQEKKRLKISKKPKDPEPPEKEFTPYDYSQSDFKAFAGNSKSKVSSQFDPNKQTPSGKKCIAAKKIKQSVGNKSMSFPTGKSDRGFRYNWPQR
Consider B7, for which the Total under setting [1] turned out to be 1. The molecule also registered a Unique under setting [2] of 1.
